These are yes or no findings as the source states them, for the method shown. For part of these data: In cells and extracts the contact can be indirect. Some entries that bind do so weakly or less than the wild type.
What was measured:
[1] = target: apoB in human LDL particles (human) (UniProt P04114); assay: surface plasmon resonance sensorgrams
apoB-100 in HuH-7 cells [2] = target: apoB-100 in HuH-7 cells (UniProt P04114); assay: reciprocal co-immunoprecipitation, HuH-7 cells transfected with SORT1
apoB-100 in HuH-7 cells [3] = target: apoB-100 in HuH-7 cells (UniProt P04114); assay: reciprocal co-immunoprecipitation from crosslinked lysate of SORT1-overexpressing HuH-7 cells, Western blot

Amino acid sequences for entries named in this document (tags omitted). A change or cut given only in a name is not applied to a line headed by its entry. Residues count along the entry.
UniProt P04114, residues 28-4563: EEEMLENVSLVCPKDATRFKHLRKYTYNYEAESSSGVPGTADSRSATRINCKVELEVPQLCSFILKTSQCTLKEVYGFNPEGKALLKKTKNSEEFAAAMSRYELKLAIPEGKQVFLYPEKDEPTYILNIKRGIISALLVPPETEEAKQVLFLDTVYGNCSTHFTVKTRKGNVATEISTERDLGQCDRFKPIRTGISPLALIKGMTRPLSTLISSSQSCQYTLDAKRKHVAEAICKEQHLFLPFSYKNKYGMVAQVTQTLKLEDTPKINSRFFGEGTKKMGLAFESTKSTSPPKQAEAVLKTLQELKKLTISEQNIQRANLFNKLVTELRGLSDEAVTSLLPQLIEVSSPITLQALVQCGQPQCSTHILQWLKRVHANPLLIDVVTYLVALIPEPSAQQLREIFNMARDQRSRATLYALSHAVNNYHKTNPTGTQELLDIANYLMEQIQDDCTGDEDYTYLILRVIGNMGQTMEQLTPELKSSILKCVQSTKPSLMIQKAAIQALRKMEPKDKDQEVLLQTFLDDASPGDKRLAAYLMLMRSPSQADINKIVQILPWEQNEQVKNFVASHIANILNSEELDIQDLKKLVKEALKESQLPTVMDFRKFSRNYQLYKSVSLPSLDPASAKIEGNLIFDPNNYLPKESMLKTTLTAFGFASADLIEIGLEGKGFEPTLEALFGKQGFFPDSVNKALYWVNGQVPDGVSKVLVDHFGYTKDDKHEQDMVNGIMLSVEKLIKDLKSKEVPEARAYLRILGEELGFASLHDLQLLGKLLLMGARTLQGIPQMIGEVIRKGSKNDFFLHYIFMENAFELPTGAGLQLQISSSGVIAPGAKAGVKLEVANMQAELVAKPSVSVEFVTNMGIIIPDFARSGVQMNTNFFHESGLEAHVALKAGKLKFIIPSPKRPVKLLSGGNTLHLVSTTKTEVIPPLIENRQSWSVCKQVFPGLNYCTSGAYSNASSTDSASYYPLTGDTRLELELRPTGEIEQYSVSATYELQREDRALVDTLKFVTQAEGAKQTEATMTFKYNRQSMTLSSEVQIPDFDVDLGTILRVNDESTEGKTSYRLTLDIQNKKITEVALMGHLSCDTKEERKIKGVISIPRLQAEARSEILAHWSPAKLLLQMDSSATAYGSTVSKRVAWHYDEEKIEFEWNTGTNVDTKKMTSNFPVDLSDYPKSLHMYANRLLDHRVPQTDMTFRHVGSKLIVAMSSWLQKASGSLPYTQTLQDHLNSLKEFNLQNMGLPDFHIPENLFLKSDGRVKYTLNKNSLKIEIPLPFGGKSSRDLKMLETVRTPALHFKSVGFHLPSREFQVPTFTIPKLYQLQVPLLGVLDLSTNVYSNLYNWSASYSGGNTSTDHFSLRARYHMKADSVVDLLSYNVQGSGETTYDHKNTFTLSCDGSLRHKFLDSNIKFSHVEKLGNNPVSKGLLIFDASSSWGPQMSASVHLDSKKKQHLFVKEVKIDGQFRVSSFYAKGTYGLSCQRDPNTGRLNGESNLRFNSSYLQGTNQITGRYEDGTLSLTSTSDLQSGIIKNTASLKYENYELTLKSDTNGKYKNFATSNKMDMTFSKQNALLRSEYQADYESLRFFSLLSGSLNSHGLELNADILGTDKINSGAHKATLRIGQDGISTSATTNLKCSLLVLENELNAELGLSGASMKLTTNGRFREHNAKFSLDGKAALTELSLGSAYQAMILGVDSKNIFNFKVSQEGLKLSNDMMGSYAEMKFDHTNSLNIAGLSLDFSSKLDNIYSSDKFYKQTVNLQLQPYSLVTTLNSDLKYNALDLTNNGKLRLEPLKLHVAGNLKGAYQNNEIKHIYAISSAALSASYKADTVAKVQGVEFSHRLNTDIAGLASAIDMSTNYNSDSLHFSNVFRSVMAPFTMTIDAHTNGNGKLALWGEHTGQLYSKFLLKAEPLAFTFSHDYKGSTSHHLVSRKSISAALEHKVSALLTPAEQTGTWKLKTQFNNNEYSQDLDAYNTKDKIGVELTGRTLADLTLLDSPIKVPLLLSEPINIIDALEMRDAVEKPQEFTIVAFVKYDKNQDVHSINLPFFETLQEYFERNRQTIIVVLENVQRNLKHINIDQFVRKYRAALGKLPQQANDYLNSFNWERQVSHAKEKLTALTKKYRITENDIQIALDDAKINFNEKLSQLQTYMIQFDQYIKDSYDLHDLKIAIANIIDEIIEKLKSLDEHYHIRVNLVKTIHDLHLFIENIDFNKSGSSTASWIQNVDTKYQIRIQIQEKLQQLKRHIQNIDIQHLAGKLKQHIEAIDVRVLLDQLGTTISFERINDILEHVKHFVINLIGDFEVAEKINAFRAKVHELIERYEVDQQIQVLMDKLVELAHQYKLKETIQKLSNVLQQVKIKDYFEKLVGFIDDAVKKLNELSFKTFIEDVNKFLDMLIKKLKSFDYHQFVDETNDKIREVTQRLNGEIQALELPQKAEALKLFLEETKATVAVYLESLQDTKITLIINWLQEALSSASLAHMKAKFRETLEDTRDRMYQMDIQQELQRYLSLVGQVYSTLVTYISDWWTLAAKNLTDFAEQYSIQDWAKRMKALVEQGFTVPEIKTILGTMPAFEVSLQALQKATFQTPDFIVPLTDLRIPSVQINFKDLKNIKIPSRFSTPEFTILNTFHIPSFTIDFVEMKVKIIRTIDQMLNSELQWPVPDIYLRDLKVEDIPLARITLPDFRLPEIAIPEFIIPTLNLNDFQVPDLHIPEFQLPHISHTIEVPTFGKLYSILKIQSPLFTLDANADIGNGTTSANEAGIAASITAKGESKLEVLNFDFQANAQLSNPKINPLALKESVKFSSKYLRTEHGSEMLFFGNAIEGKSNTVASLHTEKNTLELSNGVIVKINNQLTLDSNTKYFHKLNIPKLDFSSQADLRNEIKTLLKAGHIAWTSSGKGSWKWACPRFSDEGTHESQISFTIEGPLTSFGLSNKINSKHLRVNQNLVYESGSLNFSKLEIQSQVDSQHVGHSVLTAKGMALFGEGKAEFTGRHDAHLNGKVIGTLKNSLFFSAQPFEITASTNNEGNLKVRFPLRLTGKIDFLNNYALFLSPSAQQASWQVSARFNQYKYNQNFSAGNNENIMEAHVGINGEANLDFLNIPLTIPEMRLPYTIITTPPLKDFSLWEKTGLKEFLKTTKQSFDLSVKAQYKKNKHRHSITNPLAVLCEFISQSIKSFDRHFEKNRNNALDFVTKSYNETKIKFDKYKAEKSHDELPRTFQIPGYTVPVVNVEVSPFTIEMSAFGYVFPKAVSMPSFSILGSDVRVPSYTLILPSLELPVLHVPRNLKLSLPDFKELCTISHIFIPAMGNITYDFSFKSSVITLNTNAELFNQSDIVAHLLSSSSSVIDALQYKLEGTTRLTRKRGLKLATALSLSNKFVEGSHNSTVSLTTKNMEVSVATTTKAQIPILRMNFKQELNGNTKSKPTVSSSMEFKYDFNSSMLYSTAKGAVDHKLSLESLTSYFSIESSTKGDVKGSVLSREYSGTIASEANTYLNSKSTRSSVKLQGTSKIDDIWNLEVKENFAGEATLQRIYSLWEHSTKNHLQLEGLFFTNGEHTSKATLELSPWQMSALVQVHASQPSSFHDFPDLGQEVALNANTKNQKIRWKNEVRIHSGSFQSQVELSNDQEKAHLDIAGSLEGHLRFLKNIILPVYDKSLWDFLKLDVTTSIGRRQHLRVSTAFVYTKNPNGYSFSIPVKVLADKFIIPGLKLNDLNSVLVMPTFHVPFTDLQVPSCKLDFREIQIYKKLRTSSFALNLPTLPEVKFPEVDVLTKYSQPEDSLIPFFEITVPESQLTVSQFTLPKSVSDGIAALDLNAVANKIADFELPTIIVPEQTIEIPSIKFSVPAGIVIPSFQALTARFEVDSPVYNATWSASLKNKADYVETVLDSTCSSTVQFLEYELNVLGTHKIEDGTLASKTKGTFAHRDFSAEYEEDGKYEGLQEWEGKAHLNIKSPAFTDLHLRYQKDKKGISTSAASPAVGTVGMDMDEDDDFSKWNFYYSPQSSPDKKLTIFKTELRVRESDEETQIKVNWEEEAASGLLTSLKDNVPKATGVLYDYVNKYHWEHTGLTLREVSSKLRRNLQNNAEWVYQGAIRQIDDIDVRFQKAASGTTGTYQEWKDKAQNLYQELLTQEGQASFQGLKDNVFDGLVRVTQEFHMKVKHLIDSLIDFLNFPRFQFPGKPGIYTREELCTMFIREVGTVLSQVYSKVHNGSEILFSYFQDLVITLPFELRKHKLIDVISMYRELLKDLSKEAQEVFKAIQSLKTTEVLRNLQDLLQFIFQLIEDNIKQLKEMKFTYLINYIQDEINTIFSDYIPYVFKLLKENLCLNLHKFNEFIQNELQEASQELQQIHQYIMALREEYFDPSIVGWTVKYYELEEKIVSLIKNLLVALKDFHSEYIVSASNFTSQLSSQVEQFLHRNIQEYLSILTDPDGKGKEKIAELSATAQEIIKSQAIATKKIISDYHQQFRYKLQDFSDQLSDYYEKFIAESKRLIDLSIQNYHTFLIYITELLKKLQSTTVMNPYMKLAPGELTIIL
UniProt Q99523: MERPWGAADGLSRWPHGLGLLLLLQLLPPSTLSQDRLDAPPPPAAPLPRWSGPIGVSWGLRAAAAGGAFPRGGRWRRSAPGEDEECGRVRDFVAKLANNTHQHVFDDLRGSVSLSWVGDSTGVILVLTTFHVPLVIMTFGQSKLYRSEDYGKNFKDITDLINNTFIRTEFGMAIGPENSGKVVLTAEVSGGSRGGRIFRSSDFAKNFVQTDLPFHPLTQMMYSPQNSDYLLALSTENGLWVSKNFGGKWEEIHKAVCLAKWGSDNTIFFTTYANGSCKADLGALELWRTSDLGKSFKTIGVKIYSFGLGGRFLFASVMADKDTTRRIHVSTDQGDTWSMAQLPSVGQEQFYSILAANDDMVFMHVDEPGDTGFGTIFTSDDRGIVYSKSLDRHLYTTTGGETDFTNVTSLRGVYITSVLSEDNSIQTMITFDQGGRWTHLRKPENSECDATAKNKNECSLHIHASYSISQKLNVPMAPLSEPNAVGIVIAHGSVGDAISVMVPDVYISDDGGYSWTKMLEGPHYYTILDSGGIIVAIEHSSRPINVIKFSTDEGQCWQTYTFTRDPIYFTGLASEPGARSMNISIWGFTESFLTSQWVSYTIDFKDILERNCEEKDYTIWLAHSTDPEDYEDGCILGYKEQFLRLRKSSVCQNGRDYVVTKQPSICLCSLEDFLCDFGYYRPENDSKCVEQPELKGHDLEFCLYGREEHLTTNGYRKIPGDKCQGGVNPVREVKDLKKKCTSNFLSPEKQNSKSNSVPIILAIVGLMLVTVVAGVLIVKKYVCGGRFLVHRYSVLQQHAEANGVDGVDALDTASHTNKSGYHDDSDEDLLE

Row | Substance | binding [1] | binding (apoB-100 in HuH-7 cells [2]) | binding (apoB-100 in HuH-7 cells [3])
1 | recombinant sortilin (human sortilin, immobilized) (from UniProt Q99523 78-755) (receptor) | binds | – | –
2 | sortilin in SORT1-overexpressing HuH-7 cells (from UniProt Q99523 78-831) (receptor) | – | binds | binds

Reference: patent publication US20120289593A1
